# Experimental data: article PMC1540706
# B1: Scy1-like2 (HeLa) (protein, UniProt Q6P3W7 1-929)
# chain: MESMLNKLKSTVTKVTADVTSAVMGNPVTREFDVGRHIASGGNGLAWKIFNGTKKSTKQEVAVFVFDKKLIDKYQKFEKDQIIDSLKRGVQQLTRLRHPRLLTVQHPLEESRDCLAFCTEPVFASLANVLGNWENLPSPISPDIKDYKLYDVETKYGLLQVSEGLSFLHSSVKMVHGNITPENIILNKSGAWKIMGFDFCVSSTNPSEQEPKFPCKEWDPNLPSLCLPNPEYLAPEYILSVSCETASDMYSLGTVMYAVFNKGKPIFEVNKQDIYKSFSRQLDQLSRLGSSSLTNIPEEVREHVKLLLNVTPTVRPDADQMTKIPFFDDVGAVTLQYFDTLFQRDNLQKSQFFKGLPKVLPKLPKRVIVQRILPCLTSEFVNPDMVPFVLPNVLLIAEECTKEEYVKLILPELGPVFKQQEPIQILLIFLQKMDLLLTKTPPDEIKNSVLPMVYRALEAPSIQIQELCLNIIPTFANLIDYPSMKNALIPRIKNACLQTSSLAVRVNSLVCLGKILEYLDKWFVLDDILPFLQQIPSKEPAVLMGILGIYKCTFTHKKLGITKEQLAGKVLPHLIPLSIENNLNLNQFNSFISVIKEMLNRLESEHKTKLEQLHIMQEQQKSLDIGNQMNVSEEMKVTNIGNQQIDKVFNNIGADLLTGSESENKEDGLQNKHKRASLTLEEKQKLAKEQEQAQKLKSQQPLKPQVHTPVATVKQTKDLTDTLMDNMSSLTSLSVSTPKSSASSTFTSVPSMGIGMMFSTPTDNTKRNLTNGLNANMGFQTSGFNMPVNTNQNFYSSPSTVGVTKMTLGTPPTLPNFNALSVPPAGAKQTQQRPTDMSALNNLFGPQKPKVSMNQLSQQKPNQWLNQFVPPQGSPTMGSSVMGTQMNVIGQSAFGMQGNPFFNPQNFAQPPTTMTNSSSASNDLKDLFG
# B2: Sec23 interacting protein p125 (protein, UniProt Q9Y6Y8 1-1000)
# chain: MAERKPNGGSGGASTSSSGTNLLFSSSATEFSFNVPFIPVTQASASPASLLLPGEDSTDVGEEDSFLGQTSIHTSAPQTFSYFSQVSSSSDPFGNIGQSPLTTAATSVGQSGFPKPLTALPFTTGSQDVSNAFSPSISKAQPGAPPSSLMGINSYLPSQPSSLPPSYFGNQPQGIPQPGYNPYRHTPGSSRANPYIAPPQLQQCQTPGPPAHPPPSGPPVQMYQMPPGSLPPVPSSVQSPAQQQVPARPGAPSVQVPSPFLLQNQYEPVQPHWFYCKEVEYKQLWMPFSVFDSLNLEEIYNSVQPDPESVVLGTDGGRYDVYLYDRIRKAAYWEEEPAEVRRCTWFYKGDTDSRFIPYTEEFSEKLEAEYKKAVTTNQWHRRLEFPSGETIVMHNPKVIVQFQPSSVPDEWGTTQDGQTRPRVVKRGIDDNLDEIPDGEMPQVDHLVFVVHGIGPVCDLRFRSIIECVDDFRVVSLKLLRTHFKKSLDDGKVSRVEFLPVHWHSSLGGDATGVDRNIKKITLPSIGRFRHFTNETLLDILFYNSPTYCQTIVEKVGMEINHLHALFMSRNPDFKGGVSVAGHSLGSLILFDILSNQKDLNLSKCPGPLAVANGVVKQLHFQEKQMPEEPKLTLDESYDLVVENKEVLTLQETLEALSLSEYFSTFEKEKIDMESLLMCTVDDLKEMGIPLGPRKKIANFVEHKAAKLKKAASEKKAVAATSTKGQEQSAQKTKDMASLPSESNEPKRKLPVGACVSSVCVNYESFEVGAGQVSVAYNSLDFEPEIFFALGSPIAMFLTIRGVDRIDENYSLPTCKGFFNIYHPLDPVAYRLEPMIVPDLDLKAVLIPHHKGRKRLHLELKESLSRMGSDLKQGFISSLKSAWQTLNEFARAHTSSTQLQEELEKVANQIKEEEEKQVVEAEKVVESPDFSKDEDYLGKVGMLNGGRRIDYVLQEKPIESFNEYLFALQSHLCYWESEDTALLLLKEIYRTMNISPEQPQH
# B3: Dab2/Disabled2 (protein, UniProt P98082 1-770)
# chain: MSNEVETSATNGQPDQQAAPKAPSKKEKKKGPEKTDEYLLARFKGDGVKYKAKLIGIDDVPDARGDKMSQDSMMKLKGMAAAGRSQGQHKQRIWVNISLSGIKIIDEKTGVIEHEHPVNKISFIARDVTDNRAFGYVCGGEGQHQFFAIKTGQQAEPLVVDLKDLFQVIYNVKKKEEEKKKIEEASKAVENGSEALMILDDQTNKLKSGVDQMDLFGDMSTPPDLNSPTESKDILLVDLNSEIDTNQNSLRENPFLTNGITSCSLPRPTPQASFLPENAFSANLNFFPTPNPDPFRDDPFTQPDQSTPSSFDSLKSPDQKKENSSSSSTPLSNGPLNGDVDYFGQQFDQISNRTGKQEAQAGPWPFSSSQTQPAVRTQNGVSEREQNGFSVKSSPNPFVGSPPKGLSIQNGVKQDLESSVQSSPHDSIAIIPPPQSTKPGRGRRTAKSSANDLLASDIFAPPVSEPSGQASPTGQPTALQPNPLDLFKTSAPAPVGPLVGLGGVTVTLPQAGPWNTASLVFNQSPSMAPGAMMGGQPSGFSQPVIFGTSPAVSGWNQPSPFAASTPPPVPVVWGPSASVAPNAWSTTSPLGNPFQSNIFPAPAVSTQPPSMHSSLLVTPPQPPPRAGPPKDISSDAFTALDPLGDKEIKDVKEMFKDFQLRQPPAVPARKGEQTSSGTLSAFASYFNSKVGIPQENADHDDFDANQLLNKINEPPKPAPRQVSLPVTKSTDNAFENPFFKDSFGSSQASVASSQPVSSEMYRDPFGNPFA
# B4: epsin2 (protein, UniProt O95208 1-641)
# chain: MTTSSIRRQMKNIVNNYSEAEIKVREATSNDPWGPSSSLMTEIADLTYNVVAFSEIMSMVWKRLNDHGKNWRHVYKALTLLDYLIKTGSERVAQQCRENIFAIQTLKDFQYIDRDGKDQGINVREKSKQLVALLKDEERLKAERAQALKTKERMAQVATGMGSNQITFGRGSSQPNLSTSHSEQEYGKAGGSPASYHGSPEASLCPQHRTGAPLGQSEELQPLSQRHPFLPHLGLASRPNGDWSQPCLTCDRAARATSPRVSSELEQARPQTSGEEELQLQLALAMSREVAEQEERLRRGDDLRLQMALEESRRDTVKIPKKKEHGSLPQQTTLLDLMDALPSSGPAAQKAEPWGPSASTNQTNPWGGPAAPASTSDPWPSFGTKPAASIDPWGVPTGATVQSVPKNSDPWAASQQPASSAGKRASDAWGAVSTTKPVSVSGSFELFSNLNGTIKDDFSEFDNLRTSKKTAESVTSLPSQNNGTTSPDPFESQPLTVASSKPSSARKTPESFLGPNAALVNLDSLVTRPAPPAQSLNPFLAPGAPATSAPVNPFQVNQPQPLTLNQLRGSPVLGTSTSFGPGPGVESMAVASMTSAAPQPALGATGSSLTPLGPAMMNMVGSVGIPPSAAQATGTTNPFLL
# B5: KIAA1033 (protein, UniProt Q2M389 1-1173)
# chain: MAVETLSPDWEFDRVDDGSQKIHAEVQLKNYGKFLEEYTSQLRRIEDALDDSIGDVWDFNLDPIALKLLPYEQSSLLELIKTENKVLNKVITVYAALCCEIKKLKYEAETKFYNGLLFYGEGATDASMVEGDCQIQMGRFISFLQELSCFVTRCYEVVMNVVHQLAALYISNKIAPKIIETTGVHFQTMYEHLGELLTVLLTLDEIIDNHITLKDHWTMYKRLLKSVHHNPSKFGIQEEKLKPFEKFLLKLEGQLLDGMIFQACIEQQFDSLNGGVSVSKNSTFAEEFAHSIRSIFANVEAKLGEPSEIDQRDKYVGICGLFVLHFQIFRTIDKKFYKSLLDICKKVPAITLTANIIWFPDNFLIQKIPAAAKLLDRKSLQAIKIHRDTFLQQKAQSLTKDVQSYYVFVSSWMMKMESILSKEQRMDKFAEDLTNRCNVFIQGFLYAYSISTIIKTTMNLYMSMQKPMTKTSVKALCRLVELLKAIEHMFYRRSMVVADSVSHITQHLQHQALHSISVAKKRVISDKKYSEQRLDVLSALVLAENTLNGPSTKQRRLIVSLALSVGTQMKTFKDEELFPLQVVMKKLDLISELRERVQTQCDCCFLYWHRAVFPIYLDDVYENAVDAARLHYMFSALRDCVPAMMHARHLESYEILLDCYDKEIMEILNEHLLDKLCKEIEKDLRLSVHTHLKLDDRNPFKVGMKDLALFFSLNPIRFFNRFIDIRAYVTHYLDKTFYNLTTVALHDWATYSEMRNLATQRYGLVMTEAHLPSQTLEQGLDVLEIMRNIHIFVSRYLYNLNNQIFIERTSNNKHLNTINIRHIANSIRTHGTGIMNTTVNFTYQFLKKKFYIFSQFMYDEHIKSRLIKDIRFFREIKDQNDHKYPFDRAEKFNRGIRKLGVTPEGQSYLDQFRQLISQIGNAMGYVRMIRSGGLHCSSNAIRFVPDLEDIVNFEELVKEEGLAEETLKAARHLDSVLSDHTRNSAEGTEYFKMLVDVFAPEFRRPKNIHLRNFYIIVPPLTLNFVEHSISCKEKLNKKNKIGAAFTDDGFAMGVAYILKLLDQYREFDSLHWFQSVREKYLKEIRAVAKQQNVQSASQDEKLLQTMNLTQKRLDVYLQEFELLYFSLSSARIFFRADKTAAEENQEKKEKEEETKTSNGDLSDSTVSADPVVK
# Target: GST-mouse-α-appendage (α-earL695–983) (mouse)
# Assay: affinity purification with mass spectrometry; 30–100 μg GST-appendage on glutathione-sepharose beads in HeLa cell extract (150 mM NaCl, 20 mM HEPES pH 7.4, 2 mM DTT, NP40, 0.1% Tx-100), 1 h at 4 °C, 4 washes; Coomassie bands read by LC-MS/MS; only the target purified
row,binding,Binder
1,binds,B1
2,binds,B2
3,binds,B3
4,binds,B4
5,binds,B5

# Results are given in words; binding and its absence hold for the method and conditions named. In cells and extracts the contact can be indirect. These calls come from enrichment with a bait or labelling near it, and not all partners need be listed.
